Results on 1 molecule are retold here after publication doi:10.1101/2020.05.06.080432.

This assay concerns the target His6-SUMO-His6-sP26 (Methanosarcina mazei). Kind of assay: affinity purification with mass spectrometry.

No constants are given. Whether binding was seen depends on the method and setting. In cells and extracts the contact can be indirect. Here binding means that the protein was enriched with, or labelled near, the bait; the list need not be complete.

B1: glutamine synthetase (GlnA1), endogenous in M. mazei cell extract (enzyme, UniProt Q8PY99 1-447)
chain: MVQMKKCTTKEDVLEAVKERDVKFIRTQFTDTLGIIKSWAIPAEQLEEAFENGVMFDGSSIQGFTRIEESDMKLALDPSTFRILPWRPATGAVARILGDVYLPDGNPFKGDPRYVLKTAIKEAEKMGFSMNVGPELEFFLFKLDANGNPTTELTDQGGYFDFAPLDRAQDVRRDIDYALEHMGFQIEASHHEVAPSQHEIDFRFGDVLCTADNVVTFKYVVKSIAYHKGYYASFMPKPLFGVNGSGMHSNQSLFKDGKNVFYDPDTPTKLSQDAMYYIGGLLKHIREFTAVTNPVVNSYKRLVPGYEAPVYISWSAQNRSSLIRIPATRGNGTRIELRCPDPACNPYLAFALMLRAGLEGIKNKIDPGEPTNVNIFHLSDKEREERGIRSLPADLKEAIDEMKGSKFVKEALGEHVFSHYLCAKEMEWDEYKAVVHPWELSRYLSML
Take B1: the binding entry is “binds”.
